From paper PMC5897774, “Mitotic spindle association of TACC3 requires Aurora‐A‐dependent stabilization of a cryptic α‐helix” (The EMBO Journal, 2018)
No constants are given. Whether binding was seen depends on the method and setting. For some assays here: In cells and extracts the contact can be indirect. Some results given as binding are weak or reduced against the parent protein; the word gives no strength.

Assays:
[1] = biological target: TACC3 519–563 (TACC3^N‐ACID) (human) (UniProt Q9Y6A5); test: crystal structure; co-expressed Aurora‐A 122–403 D274N, C290A, C393A/TACC3 519–563 complex, 16.5 mg/ml, with 5 mM ADP/MgCl2; 0.1 M Bis–Tris pH 5.5, 2 M ammonium sulphate, 18°C; both purified
[2] = biological target: TACC3 (endogenous, WT HeLa) (human (endogenous in HeLa)) (UniProt Q9Y6A5); test: proximity ligation; HeLa cells (synchronised by double‐thymidine block or WT, F525A clones) fixed with ice‐cold methanol; mouse Aurora‐A antibody with rabbit TACC3 or TPX2 antibody; Duolink kit

B1: Aurora‐A 122–403 C290A, C393A, D274N mutant (Aurora‐A^M3KD) (domain or fragment, UniProt O14965 122-403)
chain: ESKKRQWALEDFEIGRPLGKGKFGNVYLAREKQSKFILALKVLFKAQLEKAGVEHQLRREVEIQSHLRHPNILRLYGYFHDATRVYLILEYAPLGTVYRELQKLSKFDEQRTATYITELANALSYCHSKRVIHRDIKPENLLLGSAGELKIANFGWSVHAPSSRRTTLAGTLDYLPPEMIEGRMHDEKVDLWSLGVLCYEFLVGKPPFEANTYQETYKRISRVEFTFPDFVTEGARDLISRLLKHNPSQRPMLREVLEHPWITANSSKPSNAQNKESASKQS
- binding [1]: binds

B2: Aurora‐A (endogenous, HeLa) (protein, UniProt O14965 1-403)
chain: MDRSKENCISGPVKATAPVGGPKRVLVTQQFPCQNPLPVNSGQAQRVLCPSNSSQRIPLQAQKLVSSHKPVQNQKQKQLQATSVPHPVSRPLNNTQKSKQPLPSAPENNPEEELASKQKNEESKKRQWALEDFEIGRPLGKGKFGNVYLAREKQSKFILALKVLFKAQLEKAGVEHQLRREVEIQSHLRHPNILRLYGYFHDATRVYLILEYAPLGTVYRELQKLSKFDEQRTATYITELANALSYCHSKRVIHRDIKPENLLLGSAGELKIADFGWSVHAPSSRRTTLCGTLDYLPPEMIEGRMHDEKVDLWSLGVLCYEFLVGKPPFEANTYQETYKRISRVEFTFPDFVTEGARDLISRLLKHNPSQRPMLREVLEHPWITANSSKPSNCQNKESASKQS
- binding [2]: binds
